Test: general procedure: peptide synthesis; 2-chlorotrityl chloride (CTC) resin, load 0.985 mmol/g; PyBOP (macrocyclization)
Settings: cyclisation step

Substance | cyclisation yield [%] | cyclisation yield (on linear precursor) [%]
Cyclo (Leu-Pro-D-Leu-Pro-Leu) | 36.4 | –
Cyclo (Leu-N-Me-Leu-Leu-Pro-Leu) | – | 40.7
Cyclo (D-Leu-Pro-Leu-Pro-D-Leu) | 34.5 | –
Cyclo (D-Leu-Pro-D-Leu-Pro-D-Leu) | 46.2 | –
Cyclo (Leu-Pro-D-Leu-Pro-D-Leu) | 54.6 | –
Cyclo (Leu-Pro-Leu-Pro-D-Leu) | 58.9 | –

From paper PMC8949366 (Marine Drugs, 2022)
